Taken from: PubChem BioAssay AID504804 (Drosophila RNAi Screening Center, 2011)
In all, the deposit lists about 19,000 reagents; below is a random part of those that have a named target and a result. Of all reagents, 47 (0.25%) got an active call. 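Signals are raw, not normalised; exact z-scores behind calls not deposited; actives needed confirmation, so some wells reaching 2 SD are inactive.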

Aim: 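dsRNAs that improve Kc cell survival under doxorubicin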 (primary screen)
System: Drosophila Kc cells
Reagent: long dsRNA against Drosophila genes, 0.5 µg dsRNA per well
Time to read-out: 96 h (48 h knock-down, then 48 h drug)
Treatment: doxorubicin 5 µg/ml for 48 h, added 48 h after dsRNA
Measurement: 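Viability measured as cellular ATP by luminescence after 48 h knock-down then 48 h doxorubicin at 5 µg/ml; unnormalised plate counts for each replicate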
Direction: raw ATP luminescence: higher = more viable cells, protection from doxorubicin
Rule for the call: 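Active when both duplicate wells lie at least 2 SD above the plate mean and protection is confirmed by rescreening and independent dsRNAs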

{"Target gene": "Rexo5", "PubChem SID": "SID104190773", "raw ATP luminescence, replicate 1": 76350, "raw ATP luminescence, replicate 2": 75733, "call": "inactive"}
{"Target gene": "wrd", "PubChem SID": "SID104196129", "raw ATP luminescence, replicate 1": 18290, "raw ATP luminescence, replicate 2": 21300, "call": "inactive"}
{"Target gene": "wrd", "PubChem SID": "SID104196136", "raw ATP luminescence, replicate 1": 52980, "raw ATP luminescence, replicate 2": 72030, "call": "inactive"}
{"Target gene": "CG32695", "PubChem SID": "SID104197767", "raw ATP luminescence, replicate 1": 3.93e5, "raw ATP luminescence, replicate 2": 3.51e5, "call": "inactive"}
{"Target gene": "Agpat4", "PubChem SID": "SID104190238", "raw ATP luminescence, replicate 1": 36257, "raw ATP luminescence, replicate 2": 28870, "call": "inactive"}
{"Target gene": "CG11155", "PubChem SID": "SID104196976", "raw ATP luminescence, replicate 1": 1.78e5, "raw ATP luminescence, replicate 2": 1.64e5, "call": "inactive"}
{"Target gene": "CG13252", "PubChem SID": "SID104191492", "raw ATP luminescence, replicate 1": 68740, "raw ATP luminescence, replicate 2": 78603, "call": "inactive"}
{"Target gene": "CG3308", "PubChem SID": "SID104195266", "raw ATP luminescence, replicate 1": 47490, "raw ATP luminescence, replicate 2": 42310, "call": "inactive"}
{"Target gene": "Tdc2", "PubChem SID": "SID104184791", "raw ATP luminescence, replicate 1": 72087, "raw ATP luminescence, replicate 2": 63113, "call": "inactive"}

The list goes on; the last 2 above are carried over.
{"Target gene": "CG3308", "PubChem SID": "SID104195266", "raw ATP luminescence, replicate 1": 47490, "raw ATP luminescence, replicate 2": 42310, "call": "inactive"}
{"Target gene": "Tdc2", "PubChem SID": "SID104184791", "raw ATP luminescence, replicate 1": 72087, "raw ATP luminescence, replicate 2": 63113, "call": "inactive"}
{"Target gene": "ND-MLRQ", "PubChem SID": "SID104191705", "raw ATP luminescence, replicate 1": 1.43e5, "raw ATP luminescence, replicate 2": 51663, "call": "inactive"}
{"Target gene": "inaF-C", "PubChem SID": "SID104198694", "raw ATP luminescence, replicate 1": 1.84e5, "raw ATP luminescence, replicate 2": 1.94e5, "call": "inactive"}
{"Target gene": "CG10631", "PubChem SID": "SID104181873", "raw ATP luminescence, replicate 1": 92840, "raw ATP luminescence, replicate 2": 64507, "call": "inactive"}
{"Target gene": "CG13842", "PubChem SID": "SID104194484", "raw ATP luminescence, replicate 1": 64610, "raw ATP luminescence, replicate 2": 73070, "call": "inactive"}
{"Target gene": "EloA", "PubChem SID": "SID104195901", "raw ATP luminescence, replicate 1": 35757, "raw ATP luminescence, replicate 2": 33950, "call": "inactive"}
{"Target gene": "TrpRS-m", "PubChem SID": "SID104190640", "raw ATP luminescence, replicate 1": 27607, "raw ATP luminescence, replicate 2": 28680, "call": "inactive"}
{"Target gene": "Gel", "PubChem SID": "SID104192142", "raw ATP luminescence, replicate 1": 17927, "raw ATP luminescence, replicate 2": 19350, "call": "inactive"}
{"Target gene": "NPF", "PubChem SID": "SID104196811", "raw ATP luminescence, replicate 1": 79920, "raw ATP luminescence, replicate 2": 67850, "call": "inactive"}
{"Target gene": "CG32182", "PubChem SID": "SID104189300", "raw ATP luminescence, replicate 1": 80177, "raw ATP luminescence, replicate 2": 77010, "call": "inactive"}
{"Target gene": "CG2698", "PubChem SID": "SID104195239", "raw ATP luminescence, replicate 1": 50510, "raw ATP luminescence, replicate 2": 63253, "call": "inactive"}
